Test results: US7947715B2, “Isoxazoline compound and pesticide” (Nissan Chemical Industries, Ltd., priority 2006, dated 2011)
Some entries share one result that the patent states for a list of compounds. At least one compound was matched to its structure with a doubt left.

Tested on: cabbage moth (Plutella xylostella)
Experiment: Insecticidal test against cabbage moth (leaf dip)
Type: in vivo
Conditions: second instar larva, after 6 days

Compound	insecticidal rate (rate of dead insects) (10 ppm (**)) [%]	insecticidal rate (rate of dead insects) (100 ppm (*)) [%]	further results
CCCN(Cc1ccc(C2=NOC(c3cc(C(F)(F)F)cc(C(F)(F)F)c3)(C(F)(F)F)C2)cc1Cl)C(=O)C1CC1 (centres unmarked) [7-085]	≥ 80	–	–
CCCN(Cc1ccc(C2=NOC(c3cc(Cl)c(Cl)c(C(F)(F)F)c3)(C(F)(F)F)C2)cc1Cl)C(=O)C1CC1 (centres unmarked) [7-086]	≥ 80	–	–
CCCN(Cc1ccc(C2=NOC(c3cc(Cl)c(Cl)c(C(F)(F)F)c3)(C(F)(F)F)C2)cc1Br)C(=O)C1CC1 (centres unmarked) [7-087]	–	≥ 80	–
CCCN(C(=O)C1CC1)C(C)c1ccc(C2=NOC(c3cc(Cl)c(Cl)c(C(F)(F)F)c3)(C(F)(F)F)C2)cc1 (centres unmarked) [7-088]	–	≥ 80	–
CC(C)(C)OC(=O)NCCN(Cc1ccc(C2=NOC(c3cc(Cl)cc(Cl)c3)(C(F)(F)F)C2)cc1Cl)C(=O)C1CC1 (centres unmarked) [7-093]	–	≥ 80	–
CCNC(=O)NCCN(Cc1ccc(C2=NOC(c3cc(Cl)cc(Cl)c3)(C(F)(F)F)C2)cc1Cl)C(=O)C1CC1 (centres unmarked) [7-094]	–	–	insecticidal rate (rate of dead insects) (500 ppm): ≥ 80%
N#CCN(Cc1ccc(C2=NOC(c3cc(C(F)(F)F)cc(C(F)(F)F)c3)(C(F)(F)F)C2)cc1Cl)C(=O)C1CC1 (centres unmarked) [7-095]	≥ 80	–	–
N#CCN(Cc1ccc(C2=NOC(c3cc(Cl)c(Cl)c(C(F)(F)F)c3)(C(F)(F)F)C2)cc1Cl)C(=O)C1CC1 (centres unmarked) [7-096]	≥ 80	–	–
N#CCN(Cc1ccc(C2=NOC(c3cc(Cl)c(Cl)c(C(F)(F)F)c3)(C(F)(F)F)C2)cc1Br)C(=O)C1CC1 (centres unmarked) [7-097]	≥ 80	–	–
CC(c1ccc(C2=NOC(c3cc(Cl)c(Cl)c(C(F)(F)F)c3)(C(F)(F)F)C2)cc1)N(CC#N)C(=O)C1CC1 (centres unmarked) [7-098]	–	≥ 80	–
C=CCN(Cc1ccc(C2=NOC(c3cc(C(F)(F)F)cc(C(F)(F)F)c3)(C(F)(F)F)C2)cc1Cl)C(=O)C1CC1 (centres unmarked) [7-099]	≥ 80	–	–
C=CCN(Cc1ccc(C2=NOC(c3cc(Cl)c(Cl)c(C(F)(F)F)c3)(C(F)(F)F)C2)cc1Cl)C(=O)C1CC1 (centres unmarked) [7-100]	≥ 80	–	–
C=CCN(Cc1ccc(C2=NOC(c3cc(Cl)c(Cl)c(C(F)(F)F)c3)(C(F)(F)F)C2)cc1Br)C(=O)C1CC1 (centres unmarked) [7-101]	≥ 80	–	–
C=CCN(C(=O)C1CC1)C(C)c1ccc(C2=NOC(c3cc(Cl)c(Cl)c(C(F)(F)F)c3)(C(F)(F)F)C2)cc1 (centres unmarked) [7-102]	–	≥ 80	–
C#CCN(Cc1ccc(C2=NOC(c3cc(C(F)(F)F)cc(C(F)(F)F)c3)(C(F)(F)F)C2)cc1Cl)C(=O)C1CC1 (centres unmarked) [7-103]	≥ 80	–	–
C#CCN(Cc1ccc(C2=NOC(c3cc(Cl)c(Cl)c(C(F)(F)F)c3)(C(F)(F)F)C2)cc1Cl)C(=O)C1CC1 (centres unmarked) [7-104]	≥ 80	–	–
C#CCN(Cc1ccc(C2=NOC(c3cc(Cl)c(Cl)c(C(F)(F)F)c3)(C(F)(F)F)C2)cc1Br)C(=O)C1CC1 (centres unmarked) [7-105]	≥ 80	–	–
C#CCN(C(=O)C1CC1)C(C)c1ccc(C2=NOC(c3cc(Cl)c(Cl)c(C(F)(F)F)c3)(C(F)(F)F)C2)cc1 (centres unmarked) [7-106]	–	≥ 80	–
CCN(Cc1ccc(C2=NOC(c3cc(C(F)(F)F)cc(C(F)(F)F)c3)(C(F)(F)F)C2)cc1Cl)C(=O)CC(C)C (centres unmarked) [7-107]	≥ 80	–	–
CC(C)CC(=O)N(CC#N)Cc1ccc(C2=NOC(c3cc(C(F)(F)F)cc(C(F)(F)F)c3)(C(F)(F)F)C2)cc1Cl (centres unmarked) [7-109]	≥ 80	–	–
C#CCN(Cc1ccc(C2=NOC(c3cc(C(F)(F)F)cc(C(F)(F)F)c3)(C(F)(F)F)C2)cc1Cl)C(=O)CC(C)C (centres unmarked) [7-110]	≥ 80	–	–
CC(C)CN(Cc1ccc(C2=NOC(c3cc(C(F)(F)F)cc(C(F)(F)F)c3)(C(F)(F)F)C2)cc1Cl)C(=O)CC1CC1 (centres unmarked) [7-111]	≥ 80	–	–

Compound	insecticidal rate (rate of dead insects) (10 ppm (**)) [%]	insecticidal rate (rate of dead insects) (100 ppm (*)) [%]	further results
C=CCN(Cc1ccc(C2=NOC(c3cc(C(F)(F)F)cc(C(F)(F)F)c3)(C(F)(F)F)C2)cc1Cl)C(=O)CC1CC1 (centres unmarked) [7-112]	≥ 80	–	–
O=C(CC1CC1)N(Cc1ccccc1)Cc1ccc(C2=NOC(c3cc(C(F)(F)F)cc(C(F)(F)F)c3)(C(F)(F)F)C2)cc1Cl (centres unmarked) [7-113]	–	≥ 80	–
CCNC(=O)N(Cc1ccc(C2=NOC(c3cc(C(F)(F)F)cc(C(F)(F)F)c3)(C(F)(F)F)C2)cc1Cl)CC(C)C (centres unmarked) [7-114]	≥ 80	–	–
CCNC(=O)N(CC#N)Cc1ccc(C2=NOC(c3cc(C(F)(F)F)cc(C(F)(F)F)c3)(C(F)(F)F)C2)cc1Cl (centres unmarked) [7-115]	≥ 80	–	–
C=CCN(Cc1ccc(C2=NOC(c3cc(C(F)(F)F)cc(C(F)(F)F)c3)(C(F)(F)F)C2)cc1Cl)C(=O)NCC (centres unmarked) [7-116]	≥ 80	–	–
CCNC(=O)N(Cc1ccccc1)Cc1ccc(C2=NOC(c3cc(C(F)(F)F)cc(C(F)(F)F)c3)(C(F)(F)F)C2)cc1Cl (centres unmarked) [7-117]	≥ 80	–	–
O=C(NC1CC1)C(=O)N(Cc1ccc(C2=NOC(c3cc(C(F)(F)F)cc(C(F)(F)F)c3)(C(F)(F)F)C2)cc1Cl)CC1CC1 (centres unmarked) [7-118]	–	–	insecticidal rate (rate of dead insects) (500 ppm): ≥ 80%
O=C(CC(F)(F)F)NCCc1ccc(C2=NOC(c3cc(Cl)cc(Cl)c3)(C(F)(F)F)C2)cc1 (centres unmarked) [8-005]	–	≥ 80	–
CC(C)C(=O)NNCc1ccc(C2=NOC(c3cc(Cl)cc(Cl)c3)(C(F)(F)F)C2)cc1Cl (centres unmarked) [8-006]	–	≥ 80	–
CCC(=O)NC(C)(C)c1ccc(C2=NOC(c3cc(Cl)cc(Cl)c3)(C(F)(F)F)C2)cc1 (centres unmarked) [8-011]	–	≥ 80	–
O=C(CC1CC1)NC1(c2ccc(C3=NOC(c4cc(Cl)cc(Cl)c4)(C(F)(F)F)C3)cc2)CC1 (centres unmarked) [8-015]	–	≥ 80	–
CSCC(=O)NC1(c2ccc(C3=NOC(c4cc(Cl)cc(Cl)c4)(C(F)(F)F)C3)cc2)CC1 (centres unmarked) [8-016]	–	–	insecticidal rate (rate of dead insects) (500 ppm): ≥ 80%
O=C(NC1(c2ccc(C3=NOC(c4cc(Cl)cc(Cl)c4)(C(F)(F)F)C3)cc2)CC1)c1ccc(F)cc1F (centres unmarked) [8-017]	≥ 80	–	–
O=C(NC1(c2ccc(C3=NOC(c4cc(Cl)cc(Cl)c4)(C(F)(F)F)C3)cc2)CC1)c1c(F)cc(F)cc1F (centres unmarked) [8-018]	≥ 80	–	–
O=C(NC1(c2ccc(C3=NOC(c4cc(Cl)cc(Cl)c4)(C(F)(F)F)C3)cc2)CC1)c1cnccn1 (centres unmarked) [8-019]	–	≥ 80	–
CC(C#N)(NC(=O)C1CC1)c1ccc(C2=NOC(c3cc(Cl)c(Cl)c(Cl)c3)(C(F)(F)F)C2)cc1 (centres unmarked) [8-020]	–	≥ 80	–
NCc1ccc(C2=NOC(c3cc(Cl)cc(Cl)c3)(C(F)(F)F)C2)cc1 (centres unmarked) [9-001]	–	–	insecticidal rate (rate of dead insects) (500 ppm): ≥ 80%
FC(F)(F)C1(c2cc(Cl)cc(Cl)c2)CC(c2ccc(CNCc3ccccn3)cc2)=NO1 (centres unmarked) [9-005]	–	–	insecticidal rate (rate of dead insects) (500 ppm): ≥ 80%
Fc1ccc(NCc2ccc(C3=NOC(c4cc(Cl)cc(Cl)c4)(C(F)(F)F)C3)cc2)cc1 (centres unmarked) [9-006]	–	–	insecticidal rate (rate of dead insects) (500 ppm): ≥ 80%
CC(N)c1ccc(C2=NOC(c3cc(Cl)cc(Cl)c3)(C(F)(F)F)C2)cc1 (centres unmarked) [9-007]	–	≥ 80	–
NCc1ccc(C2=NOC(c3cc(Cl)cc(Cl)c3)(C(F)(F)F)C2)cc1Cl (centres unmarked) [9-011]	–	≥ 80	–
CCNCc1ccc(C2=NOC(c3cc(Cl)cc(Cl)c3)(C(F)(F)F)C2)cc1Cl (centres unmarked) [9-012]	≥ 80	–	–

Compound	insecticidal rate (rate of dead insects) (10 ppm (**)) [%]	insecticidal rate (rate of dead insects) (100 ppm (*)) [%]	further results
O=C(CNCc1ccc(C2=NOC(c3cc(Cl)cc(Cl)c3)(C(F)(F)F)C2)cc1Cl)NCC(F)(F)F (centres unmarked) [9-013]	–	≥ 80	–
NCc1ccc(C2=NOC(c3cc(Cl)cc(Cl)c3)(C(F)(F)F)C2)cc1I (centres unmarked) [9-019]	–	≥ 80	–
Cc1cc(C2=NOC(c3cc(Cl)cc(Cl)c3)(C(F)(F)F)C2)ccc1CN (centres unmarked) [9-020]	–	–	insecticidal rate (rate of dead insects) (500 ppm): ≥ 80%
NCc1ccc(C2=NOC(c3cc(Cl)cc(Cl)c3)(C(F)(F)F)C2)cc1[N+](=O)[O-] (centres unmarked) [9-021]	–	–	insecticidal rate (rate of dead insects) (500 ppm): ≥ 80%
NCc1ccc(C2=NOC(c3cc(Cl)c(Cl)c(Cl)c3)(C(F)(F)F)C2)cc1Cl (centres unmarked) [9-022]	–	≥ 80	–
CNCc1ccc(C2=NOC(c3cc(Cl)cc(Cl)c3)(C(F)(F)F)C2)cc1Cl (centres unmarked) [9-023]	–	≥ 80	–
FC(F)(F)C1(c2cc(Cl)cc(Cl)c2)CC(c2ccc(CNC3CC3)c(Cl)c2)=NO1 (centres unmarked) [9-024]	–	≥ 80	–
FC(F)(F)C1(c2cc(Cl)cc(Cl)c2)CC(c2ccc(CNCC3CC3)c(Cl)c2)=NO1 (centres unmarked) [9-025]	–	≥ 80	–
CCNCc1ccc(C2=NOC(c3cc(Cl)cc(Cl)c3)(C(F)(F)F)C2)cc1I (centres unmarked) [9-030]	–	≥ 80	–
NCc1ccc(C2=NOC(c3cc(Cl)c(Cl)c(Cl)c3)(C(F)(F)F)C2)cc1 (centres unmarked) [9-031]	–	–	insecticidal rate (rate of dead insects) (500 ppm): ≥ 80%
NCc1ccc(C2=NOC(c3cc(C(F)(F)F)cc(C(F)(F)F)c3)(C(F)(F)F)C2)cc1Cl (centres unmarked) [9-032]	–	≥ 80	–
NCc1ccc(C2=NOC(c3cc(Cl)c(Cl)c(Cl)c3)(C(F)(F)F)C2)cc1Br (centres unmarked) [9-033]	–	≥ 80	–
NCc1ccc(C2=NOC(c3cc(Cl)c(Cl)c(Cl)c3)(C(F)(F)F)C2)cc1[N+](=O)[O-] (centres unmarked) [9-034]	–	–	insecticidal rate (rate of dead insects) (500 ppm): ≥ 80%
NCc1ccc(C2=NOC(c3cc(Cl)cc(Cl)c3)(C(F)(F)F)C2)c2ccccc12 (centres unmarked) [9-035]	–	≥ 80	–
CNCc1ccc(C2=NOC(c3cc(Cl)c(Cl)c(Cl)c3)(C(F)(F)F)C2)cc1Cl (centres unmarked) [9-036]	≥ 80	–	–
CCNCc1ccc(C2=NOC(c3cc(Cl)c(Cl)c(Cl)c3)(C(F)(F)F)C2)cc1Cl (centres unmarked) [9-037]	≥ 80	–	–
CCCNCc1ccc(C2=NOC(c3cc(Cl)c(Cl)c(Cl)c3)(C(F)(F)F)C2)cc1Cl (centres unmarked) [9-038]	–	≥ 80	–
FC(F)(F)C1(c2cc(Cl)c(Cl)c(Cl)c2)CC(c2ccc(CNCC3CC3)c(Cl)c2)=NO1 (centres unmarked) [9-040]	–	–	insecticidal rate (rate of dead insects) (500 ppm): ≥ 80%
CSCCNCc1ccc(C2=NOC(c3cc(Cl)cc(Cl)c3)(C(F)(F)F)C2)cc1Cl (centres unmarked) [9-041]	–	–	insecticidal rate (rate of dead insects) (500 ppm): ≥ 80%
C#CCNCc1ccc(C2=NOC(c3cc(Cl)c(Cl)c(Cl)c3)(C(F)(F)F)C2)cc1Cl (centres unmarked) [9-042]	–	≥ 80	–
Fc1ccc(CNCc2ccc(C3=NOC(c4cc(Cl)cc(Cl)c4)(C(F)(F)F)C3)cc2Cl)cc1 (centres unmarked) [9-043]	–	≥ 80	–
